AC50 data for 59 molecules are collected here from PubChem BioAssay AID493014 (National Center for Advancing Translational Sciences (NCATS), 2011).

The list shows a part of the results. Further columns of the screen follow, without active or inactive calls. Most of these compounds were active or inconclusive in the main read-out, so they are no random draw. Potencies come from curve fits of mixed quality, noted in brackets.

A short description of this experiment: qHTS Assay to Find Inhibitors of Chronic Active B-Cell Receptor Signaling. The note with it: ABC-DLBCL IkBa-CBG/CBR reporter, luminescence ratio (green luciferase fused to IkBa over red control in TMD8 lymphoma cells), 4 h. In outline:
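Doxycycline induced both beetle luciferases in TMD8 lymphoma cells; IKK-driven degradation limits the IkappaBalpha-fused green signal, while red luminescence normalises for cell number and nonspecific effects. Compounds tested up to 46 uM, 4 hrs.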

The mark [1] stands for this setting: measured here: CBR red luminescence, cell number.
Setting [2] is: measured here: IkBa-CBG green luminescence.

On to `Cc1nc2c(oc3ccccc32)c(=O)o1`, for which, under setting [1], the AC50 is 3.98 µM [falling, partial curve]. The same measure, in the same setting: the value for `CN(CC(=O)Nc1cccc(F)c1)C(=O)CCNC(=O)c1ccco1` was 3.26 µM [rising, full curve, poor fit]. The same measure, in the same setting: for `COc1ccc(C(CNC(=O)c2ccc3c(c2)OCCO3)N(C)C)cc1` (configuration not stated) the value was 17.8 µM [falling, partial curve, poor fit]; for `O=C(Cn1c(=O)c2cccn2c2ccccc21)Nc1ccc(F)cc1F`, 25.1 µM [falling, single point].

As for `O=C(O)/C=C/C(=O)Nc1ccc(Cl)cc1C(=O)c1ccccc1`, the concentration at half-maximal activity (AC50) under setting [2] is 11.2 µM [rising, partial curve, poor fit]. As to `Cc1cccc2cc3c(nc12)SC(=NCC1CCCO1)N(Cc1ccco1)C3` (configuration not stated), the AC50 under setting [1] is 2.51 µM [falling, full curve, poor fit] and the AC50 under setting [2] was 12.6 µM [falling, partial curve, poor fit]. With `Nc1c(S(=O)(=O)c2cccs2)c2nc3ccccc3nc2n1/N=C/c1cccc(O)c1`, the AC50 was 10 µM [falling, partial curve, poor fit] under setting [1] and 12.6 µM [rising, partial curve, poor fit] under setting [2]. `COc1ccc(C2=NN(c3nc(C(=O)O)cs3)C(O)(C(F)(F)F)C2)c(OC)c1` (configuration not stated): the AC50 under setting [1] is 2.51 µM [rising, full curve]. In the case of `COc1ccc(N2CCN(C3CCCN(C(=O)c4cccc(C)n4)C3)CC2)cc1` (configuration not stated), under setting [1], the concentration at half-maximal activity (AC50) is 8.91 µM [rising, partial curve, poor fit]. On the same count and under the same terms, for `CC1SCC(NC(=O)c2cccc(Cl)c2)CS1` (configuration not stated) the value was 11.2 µM [rising, partial curve]. Turning to `O=C(CN(c1cccc(C(F)(F)F)c1)S(=O)(=O)c1ccc(Cl)c([N+](=O)[O-])c1)NCc1ccc(F)cc1`, the AC50 reads like this: under setting [1], 16.4 µM [falling, partial curve]; under setting [2], 14.6 µM [rising, partial curve, poor fit]. Take `O=[N+]([O-])c1ccc(Cl)c(S(=O)(=O)n2ccnc2)c1`: under setting [1], the AC50 was 7.94 µM [falling, partial curve]. Still for that read-out and setting: the value for `CCOC(=O)C1CCN(C(=O)CN2C(=O)c3ccccc3S2(=O)=O)CC1` was 3.26 µM [rising, partial curve, poor fit]. On the same count and under the same terms, the value for `CC1CCN(CC(=O)Nc2ccc(Cl)cc2[N+](=O)[O-])CC1` was 25.1 µM [rising, single point]; that for `CN(C)c1ccc(/C=N/NC(=O)CCCCCNC(=O)c2ccccc2)cc1` was 11.2 µM [falling, partial curve]; that for `CCCS(=O)(=O)N1CCCC(C(=O)NCCc2ccccc2)C1` (configuration not stated) was 6.31 µM [rising, single point]. With `O=C(Nc1ccc(Cl)cc1C(F)(F)F)C(Sc1cccc[n+]1[O-])c1ccccc1` (configuration not stated), the AC50 was 35.5 µM [falling, single point] under setting [1] and 35.5 µM [falling, single point] under setting [2]. Regarding `C/C(=C\c1ccccc1)C(=O)NCCCn1ccnc1`, under setting [1], the AC50 is 1.78 µM [rising, full curve, poor fit]. Regarding `CC1(C)CC(=O)C(N=Nc2cccc([N+](=O)[O-])c2)=C(O)C1`, the half-maximal activity concentration (AC50) under setting [1] is 10 µM [falling, partial curve, poor fit].

With `CCOc1ccccc1-n1c(CN2CCN(C(=O)c3ccco3)CC2)nc2ccccc2c1=O`, the half-maximal activity concentration (AC50) is 29.1 µM [falling, single point] under setting [1] and 20.6 µM [rising, partial curve, poor fit] under setting [2]. For `Cc1cc(C)n(-c2ncc(-c3ccccc3)nn2)n1`, under setting [1], the AC50 is 29.1 µM [falling, single point]. On the same count and under the same terms, the value for `Cc1cc([N+](=O)[O-])ccc1NC(=S)NC(=O)C(c1ccccc1)c1ccccc1` was 0.517 µM [falling, full curve, poor fit].

As for `CCn1c(Sc2ccc([N+](=O)[O-])cn2)nnc1-c1ccco1`, under setting [2], the AC50 is 20 µM [falling, single point]. Turning to `CCc1nc(Nc2ccc(O)cc2)c2oc3ccccc3c2n1`, the half-maximal activity concentration (AC50) under setting [1] is 11.2 µM [falling, partial curve, poor fit].

With `Cc1coc2cc3oc(=O)c(CCC(=O)NCc4ccccn4)c(C)c3cc12`, the concentration at half-maximal activity (AC50) under setting [1] was 6.31 µM [rising, single point]. On the same count and under the same terms, for `Cc1cccc(C(=O)NNC(=O)c2ccccc2Br)c1` the value was 3.98 µM [falling, full curve]; for `O=C(O)CCC(NS(=O)(=O)c1ccc(-c2ccccc2)cc1)C(=O)O` (configuration not stated), 0.0326 µM [falling, full curve, poor fit]. On the same count and under the same terms, for `O=C1C=C(Nc2cccc(O)c2)CC(c2ccco2)C1` (configuration not stated) the value was 4.61 µM [falling, full curve]; for `C=CCOC(=O)c1ccc(N2CCN(c3ccccc3)CC2)nc1`, 0.355 µM [rising, partial curve, poor fit]; for `COc1cc(C(=O)NC(=S)Nc2csc(-c3ccc(F)cc3)n2)cc(OC)c1OC`, 12.6 µM [rising, single point].

Turning to `Cc1cccc(-c2nc(Nc3ccc(N4CCOCC4)cc3)c3ccccc3n2)c1`, the half-maximal activity concentration (AC50) under setting [1] was 29.1 µM [falling, single point]. For `CC[C@]12c3[nH]c4cc(CCC(=O)N(C)C)ccc4c3CCN1C(=O)[C@@H](CC(=O)NCCC1=CCCCC1)C[C@@H]2C(=O)N1CCN(C(=O)c2ccco2)CC1`, the AC50 reads like this: under setting [1], 18.4 µM [rising, single point]; under setting [2], 20.6 µM [falling, single point].

Take `COc1ccc(NC(=O)CN(C)C(=O)c2cccc(S(=O)(=O)N3CCCc4ccccc43)c2)cc1`: the half-maximal activity concentration (AC50) under setting [1] was 0.82 µM [rising, full curve, poor fit]. As for `O=[N+]([O-])c1cc(S(=O)(=O)N2CCCCC2)ccc1NCCCN1CCOCC1`, the AC50 under setting [1] is 0.112 µM [falling, full curve, poor fit]. For `Cc1cccc(C2c3[nH]c4ccccc4c3CCN2C(=O)c2cn(C)c3ccccc3c2=O)n1` (configuration not stated), under setting [2], the AC50 was 11.2 µM [falling, partial curve, poor fit].

For `CC1CCC/C(=C\Nc2ccccc2C(=O)O)C1=O` (configuration not stated), under setting [1], the AC50 was 2.82 µM [falling, full curve]. Regarding `O=C(CN1C(=O)CSc2ccc(C(F)(F)F)cc21)Nc1ccccc1`, the AC50 under setting [1] is 35.5 µM [rising, single point]. Same read-out and setting: the value for `C[C@H](CO)N1C[C@H](C)[C@@H](CN(C)C(=O)Nc2ccc(C(F)(F)F)cc2)Oc2c(NC(=O)CCC(F)(F)F)cccc2C1=O` was 0.731 µM [rising, full curve, poor fit]; that for `CCc1ccccc1NC(=O)COc1ccc2c(c1)OCO2` was 7.94 µM [falling, partial curve]; that for `Cc1ccccc1/C=C\c1nc2ccccc2c(=O)n1Cc1ccccc1` was 25.9 µM [falling, single point]. On the same count and under the same terms, the value for `CC(=O)c1c(C(C)=O)c(C)n(C(c2ccccc2)c2ccccc2)c1C` was 20 µM [falling, single point]; that for `Cc1ccc(C2=NNC(=O)C(c3c[nH]c4ccccc34)C2)cc1` (configuration not stated) was 1.26 µM [falling, full curve, poor fit]. Still for that read-out and setting: the value for `O=C(Nc1ccc2c(c1)oc1ccccc12)c1cccnc1` was 12.6 µM [falling, single point]; that for `CNC(=S)N/N=C/c1ccc(-c2ccc(C(=O)O)cc2)o1` was 3.55 µM [falling, partial curve].

`O=C(NC1CCCC1)C(=O)c1c[nH]c2ccccc12`: the concentration at half-maximal activity (AC50) under setting [1] is 1 µM [falling, full curve]. Still for that read-out and setting: the value for `COc1cccc2cc(C(=O)Nc3ccc(F)cc3)c(=Nc3ccc(C(=O)O)cc3)oc12` was 1.78 µM [falling, full curve]; that for `COc1cc(SC)ccc1C(=O)Nc1cccc(S(=O)(=O)NC2=NCCCCC2)c1` was 20.6 µM [falling, single point]. The same measure, in the same setting: for `O=C(CNC(=O)c1ccc(Cl)cc1Cl)OCc1nc2ccccc2s1` the value was 0.231 µM [rising, full curve, poor fit].

With `CC(Sc1nnc(Nc2ccccc2)s1)C(=O)NC1CCCc2ccccc21` (configuration not stated), the AC50 under setting [1] is 2.06 µM [rising, full curve]. On the same count and under the same terms, the value for `O=C(NNC(=O)C1C2C=CC(C2)C1C(=O)O)c1ccccc1O` (configuration not stated) was 2 µM [falling, full curve]. Consider `N#Cc1nc(COc2ccccc2Cl)oc1NCc1cccnc1`, for which, under setting [1], the AC50 is 6.31 µM [falling, single point]. Still for that read-out and setting: the value for `Cc1ccc(C(=O)Oc2ccc(C(=S)N3CCOCC3)cc2)cc1` was 17.8 µM [rising, partial curve, poor fit]; that for `O=C(CSc1nnc(-c2ccncc2)o1)Nc1cc(F)ccc1F` was 9.2 µM [falling, partial curve, poor fit]. On to `COC(=O)c1ccc2nc(NC(=O)CCS(=O)(=O)c3ccccc3)sc2c1`, for which the AC50 under setting [1] was 1.58 µM [falling, full curve, poor fit]. Same read-out and setting: for `COCC(=O)N(Cc1ccccc1)c1ccccn1` the value was 0.146 µM [rising, full curve, poor fit]. As for `O=C(N/N=C/C(Br)=C/c1ccccc1)c1n[nH]c2c1CCC2`, the AC50 was 1.16 µM [rising, full curve, poor fit] under setting [1] and 1.03 µM [falling, full curve] under setting [2]. In the case of `COc1ccc(/C=N/N=C2\SC(CC(=O)O)C(=O)N2c2ccccc2)c(OC)c1` (configuration not stated), the concentration at half-maximal activity (AC50) under setting [1] is 14.6 µM [falling, partial curve, poor fit]. On the same count and under the same terms, for `C/C(=N\NC(=O)c1ccccc1O)C1C(=O)c2ccccc2C1=O` the value was 1.84 µM [falling, full curve, poor fit]. Take `COc1cccc(-c2noc(CCCC(=O)Nc3ccc(C(N)=O)cc3)n2)c1`: the AC50 by setting is: under setting [1], 5.62 µM [rising, partial curve]; under setting [2], 1.26 µM [rising, full curve, poor fit].
